Results deposited as PubChem BioAssay AID686938 (Drosophila RNAi Screening Center, 2013)
The screen tested about 23,000 reagents; shown is a random part of those with a known target gene and a result. Over the whole deposit, 75 (0.33%) got an active call. 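Raw plate signals without normalisation; calls rest on plate z-scores that were not deposited; ratio present for only 364 wells.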 Entries without a mark were called inactive. Names joined by + are all predicted targets of the reagent. Not stated in the record: the dose of the treatment.

Screen: 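Fly genes required for calcium entry once internal stores are emptied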 (primary screen)
Cells: Drosophila S2R+ cells
Reagents: long dsRNA against Drosophila genes, about 0.25 µg dsRNA per well, roughly 10,000 cells
Timing: 5 days of knock-down before the calcium assay
Conditions: thapsigargin (SERCA pump blocker) to empty calcium stores; entry signal taken 4 min after adding it
Detection: 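Duplicate raw fluo-4 intensities per well from a plate reader, at rest and four minutes after thapsigargin emptied calcium stores; entry-to-rest ratio filled for only some wells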
Direction: calcium entry signal: higher = stronger calcium signal after store depletion; resting calcium signal: higher = higher resting calcium signal
Units: calcium entry signal in fluorescence units; resting calcium signal in fluorescence units
Active means: 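Called when the plate z-score of the entry-to-rest ratio, mean of duplicates, falls below −3; wells with low overall dye signal (Fmax z below −2) or more than five off-targets excluded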
Meaning of the calls: active = strongly reduced calcium entry; inactive = no strong reduction

CG15771 [DRSC18077] | calcium entry signal, replicate 1: 2.83e7; calcium entry signal, replicate 2: 4.19e7; resting calcium signal, replicate 1: 1.36e7; resting calcium signal, replicate 2: 1.80e7
CG6191 [DRSC05938] | calcium entry signal, replicate 1: 3.26e7; calcium entry signal, replicate 2: 3.16e7; resting calcium signal, replicate 1: 1.45e7; resting calcium signal, replicate 2: 1.43e7
CG6191 [DRSC23127] | calcium entry signal, replicate 1: 3.62e7; calcium entry signal, replicate 2: 3.44e7; resting calcium signal, replicate 1: 1.92e7; resting calcium signal, replicate 2: 1.74e7
Tspo + rempA [DRSC00533] | calcium entry signal, replicate 1: 4.21e7; resting calcium signal, replicate 1: 1.99e7
Gk2 (Glycerol kinase 2) [DRSC08610] | calcium entry signal, replicate 1: 4.00e7; calcium entry signal, replicate 2: 3.91e7; resting calcium signal, replicate 1: 1.81e7; resting calcium signal, replicate 2: 1.87e7
nwk (nervous wreck) [DRSC10439] | calcium entry signal, replicate 1: 5.97e7; calcium entry signal, replicate 2: 4.33e7; resting calcium signal, replicate 1: 3.86e7; resting calcium signal, replicate 2: 1.71e7
nwk (nervous wreck) [DRSC10442] | calcium entry signal, replicate 1: 3.12e7; calcium entry signal, replicate 2: 2.94e7; resting calcium signal, replicate 1: 1.49e7; resting calcium signal, replicate 2: 1.27e7
drk (downstream of receptor kinase) [DRSC07606] | calcium entry signal, replicate 1: 2.36e7; calcium entry signal, replicate 2: 2.95e7; resting calcium signal, replicate 1: 1.19e7; resting calcium signal, replicate 2: 1.55e7
Octbeta3R (Octopamine beta3 receptor) [DRSC15351] | calcium entry signal, replicate 1: 4.24e7; calcium entry signal, replicate 2: 3.69e7; resting calcium signal, replicate 1: 2.22e7; resting calcium signal, replicate 2: 1.95e7
Octbeta3R (Octopamine beta3 receptor) [DRSC16191] | calcium entry signal, replicate 1: 4.31e7; calcium entry signal, replicate 2: 4.21e7; resting calcium signal, replicate 1: 2.25e7; resting calcium signal, replicate 2: 2.24e7
Octbeta3R (Octopamine beta3 receptor) [DRSC21853] | calcium entry signal, replicate 1: 2.38e7; calcium entry signal, replicate 2: 4.77e7; resting calcium signal, replicate 1: 1.24e7; resting calcium signal, replicate 2: 2.13e7
Octbeta3R (Octopamine beta3 receptor) [DRSC21902] | calcium entry signal, replicate 1: 3.50e7; calcium entry signal, replicate 2: 5.72e7; resting calcium signal, replicate 1: 1.65e7; resting calcium signal, replicate 2: 2.83e7
Octbeta3R (Octopamine beta3 receptor) [DRSC22350] | calcium entry signal, replicate 1: 3.35e7; calcium entry signal, replicate 2: 4.18e7; resting calcium signal, replicate 1: 1.50e7; resting calcium signal, replicate 2: 2.17e7

Continued, starting with the last 2 of the part before.
Octbeta3R (Octopamine beta3 receptor) [DRSC21902] | calcium entry signal, replicate 1: 3.50e7; calcium entry signal, replicate 2: 5.72e7; resting calcium signal, replicate 1: 1.65e7; resting calcium signal, replicate 2: 2.83e7
Octbeta3R (Octopamine beta3 receptor) [DRSC22350] | calcium entry signal, replicate 1: 3.35e7; calcium entry signal, replicate 2: 4.18e7; resting calcium signal, replicate 1: 1.50e7; resting calcium signal, replicate 2: 2.17e7
CG5126 [DRSC00680] | calcium entry signal, replicate 1: 4.98e7; resting calcium signal, replicate 1: 2.70e7
pasha (partner of drosha) [DRSC15295] | calcium entry signal, replicate 1: 2.70e7; calcium entry signal, replicate 2: 3.49e7; resting calcium signal, replicate 1: 1.30e7; resting calcium signal, replicate 2: 1.67e7
rempA (reduced mechanoreceptor potential A) [DRSC00327] | calcium entry signal, replicate 1: 2.29e7; calcium entry signal, replicate 2: 2.72e7; resting calcium signal, replicate 1: 1.16e7; resting calcium signal, replicate 2: 1.23e7
CG10383 [DRSC02050] | calcium entry signal, replicate 1: 4.17e7; resting calcium signal, replicate 1: 2.03e7
smash (smallish) [DRSC12139] | calcium entry signal, replicate 1: 2.95e7; calcium entry signal, replicate 2: 3.48e7; resting calcium signal, replicate 1: 1.40e7; resting calcium signal, replicate 2: 2.15e7
smash (smallish) [DRSC12141] | calcium entry signal, replicate 1: 3.26e7; calcium entry signal, replicate 2: 3.54e7; resting calcium signal, replicate 1: 1.42e7; resting calcium signal, replicate 2: 2.10e7
smash (smallish) [DRSC12239] | calcium entry signal, replicate 1: 3.29e7; calcium entry signal, replicate 2: 4.91e7; resting calcium signal, replicate 1: 1.56e7; resting calcium signal, replicate 2: 2.08e7
smash (smallish) [DRSC12289] | calcium entry signal, replicate 1: 3.12e7; calcium entry signal, replicate 2: 4.90e7; resting calcium signal, replicate 1: 1.59e7; resting calcium signal, replicate 2: 2.20e7
CG14297 [DRSC14776] | calcium entry signal, replicate 1: 1.79e7; calcium entry signal, replicate 2: 1.98e7; resting calcium signal, replicate 1: 1.12e7; resting calcium signal, replicate 2: 3.35e7
CG13737 [DRSC10064] | calcium entry signal, replicate 1: 3.52e7; calcium entry signal, replicate 2: 3.48e7; resting calcium signal, replicate 1: 1.70e7; resting calcium signal, replicate 2: 1.51e7
CG15741 [DRSC19707] | calcium entry signal, replicate 1: 3.49e7; calcium entry signal, replicate 2: 4.33e7; resting calcium signal, replicate 1: 1.61e7; resting calcium signal, replicate 2: 2.23e7
Prat (Phosphoribosylamidotransferase) [DRSC16797] | calcium entry signal, replicate 1: 2.21e7; calcium entry signal, replicate 2: 3.00e7; resting calcium signal, replicate 1: 1.05e7; resting calcium signal, replicate 2: 1.40e7
CG4452 [DRSC10422] | calcium entry signal, replicate 1: 5.33e7; calcium entry signal, replicate 2: 4.94e7; resting calcium signal, replicate 1: 3.47e7; resting calcium signal, replicate 2: 1.90e7
FLASH (FLICE-associated huge protein) [DRSC06872] | calcium entry signal, replicate 1: 4.05e7; calcium entry signal, replicate 2: 2.07e7; resting calcium signal, replicate 1: 1.88e7; resting calcium signal, replicate 2: 1.11e7
